These are yes or no findings as the source states them, for the method shown. Binding seen in cells or lysates may run through a third protein. Some entries that bind do so weakly or less than the wild type. For some assays here: Sequences can lack the tags named with a protein.
Legend:
[1] = molecular target: T1, FLAG-tagged polymerase Eta (FLAG-Pol η) (UniProt Q9Y253); assay: co-IP; 293T cells transfected with FLAG-Pol η, with or without myc-tagged CPC members; irradiated with 10 Gy and incubated for 2 h; chromatin extraction before immunoprecipitation of FLAG-Pol η; immunoblot
T1 sequence: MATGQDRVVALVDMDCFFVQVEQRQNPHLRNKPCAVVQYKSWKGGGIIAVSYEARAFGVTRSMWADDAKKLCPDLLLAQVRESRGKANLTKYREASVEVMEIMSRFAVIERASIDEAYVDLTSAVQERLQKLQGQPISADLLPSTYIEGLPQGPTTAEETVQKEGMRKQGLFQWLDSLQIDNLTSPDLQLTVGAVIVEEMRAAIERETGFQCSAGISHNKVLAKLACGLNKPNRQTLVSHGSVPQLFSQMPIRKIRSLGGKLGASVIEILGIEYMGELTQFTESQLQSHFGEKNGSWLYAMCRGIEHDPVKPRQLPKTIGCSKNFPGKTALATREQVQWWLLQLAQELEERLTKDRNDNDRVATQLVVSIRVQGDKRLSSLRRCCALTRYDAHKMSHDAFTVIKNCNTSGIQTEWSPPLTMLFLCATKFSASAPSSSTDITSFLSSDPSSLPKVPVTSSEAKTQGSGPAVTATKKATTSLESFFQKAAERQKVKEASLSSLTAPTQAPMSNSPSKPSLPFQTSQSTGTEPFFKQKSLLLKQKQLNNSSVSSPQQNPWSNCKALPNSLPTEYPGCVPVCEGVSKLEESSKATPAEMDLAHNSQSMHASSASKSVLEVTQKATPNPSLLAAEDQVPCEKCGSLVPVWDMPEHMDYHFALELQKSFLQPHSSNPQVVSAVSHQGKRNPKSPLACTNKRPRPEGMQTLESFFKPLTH

Protein sequences, listed by entry. Tags and fused reporters are not part of them.
UniProt P12004: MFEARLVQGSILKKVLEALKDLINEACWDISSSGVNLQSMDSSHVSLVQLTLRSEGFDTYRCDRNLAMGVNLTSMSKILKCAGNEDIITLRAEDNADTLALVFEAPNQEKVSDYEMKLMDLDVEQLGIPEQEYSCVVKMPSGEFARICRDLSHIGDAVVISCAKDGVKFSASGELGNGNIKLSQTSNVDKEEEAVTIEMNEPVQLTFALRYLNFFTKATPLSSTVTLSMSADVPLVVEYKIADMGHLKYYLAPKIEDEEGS
UniProt O15392: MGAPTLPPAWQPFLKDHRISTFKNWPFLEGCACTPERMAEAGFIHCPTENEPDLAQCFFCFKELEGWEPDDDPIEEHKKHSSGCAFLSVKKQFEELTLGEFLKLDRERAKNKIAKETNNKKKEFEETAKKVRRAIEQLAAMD
UniProt Q9NQS7: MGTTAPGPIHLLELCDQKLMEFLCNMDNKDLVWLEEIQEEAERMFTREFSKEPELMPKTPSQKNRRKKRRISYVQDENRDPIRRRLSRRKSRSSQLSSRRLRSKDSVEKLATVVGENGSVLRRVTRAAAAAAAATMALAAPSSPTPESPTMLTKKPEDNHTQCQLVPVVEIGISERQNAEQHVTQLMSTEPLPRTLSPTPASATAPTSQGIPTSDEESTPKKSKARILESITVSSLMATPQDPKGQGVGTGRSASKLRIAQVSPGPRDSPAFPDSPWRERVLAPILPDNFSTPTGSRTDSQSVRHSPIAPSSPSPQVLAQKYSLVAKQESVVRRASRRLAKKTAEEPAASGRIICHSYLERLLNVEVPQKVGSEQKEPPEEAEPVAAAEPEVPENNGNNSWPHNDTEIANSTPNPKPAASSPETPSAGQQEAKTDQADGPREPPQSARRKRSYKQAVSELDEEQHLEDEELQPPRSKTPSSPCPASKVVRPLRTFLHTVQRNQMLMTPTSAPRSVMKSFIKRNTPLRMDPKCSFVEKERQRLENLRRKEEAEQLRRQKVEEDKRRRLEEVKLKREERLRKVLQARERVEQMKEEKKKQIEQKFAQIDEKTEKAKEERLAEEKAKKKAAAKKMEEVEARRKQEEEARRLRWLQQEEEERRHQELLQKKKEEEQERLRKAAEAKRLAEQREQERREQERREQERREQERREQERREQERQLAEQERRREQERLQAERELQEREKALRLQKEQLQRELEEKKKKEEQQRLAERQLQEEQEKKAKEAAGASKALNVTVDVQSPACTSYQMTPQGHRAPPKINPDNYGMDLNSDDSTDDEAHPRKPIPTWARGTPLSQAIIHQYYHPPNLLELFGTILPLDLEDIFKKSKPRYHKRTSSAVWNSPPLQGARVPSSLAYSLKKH
UniProt Q96GD4: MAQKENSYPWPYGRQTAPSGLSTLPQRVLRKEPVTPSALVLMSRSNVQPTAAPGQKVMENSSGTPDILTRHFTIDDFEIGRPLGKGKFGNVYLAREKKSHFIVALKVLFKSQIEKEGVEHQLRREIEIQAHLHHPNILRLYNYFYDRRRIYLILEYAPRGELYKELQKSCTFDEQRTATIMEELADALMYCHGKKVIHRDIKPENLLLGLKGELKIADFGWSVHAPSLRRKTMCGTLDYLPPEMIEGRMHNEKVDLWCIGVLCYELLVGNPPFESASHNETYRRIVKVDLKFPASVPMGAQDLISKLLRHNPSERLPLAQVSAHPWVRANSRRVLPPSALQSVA

GFP-PCNA = GFP-PCNA (UniProt P12004); assay: co-IP; 293T cells co-transfected with GFP-PCNA and myc-INCENP wt or PIPmut; lysates in interaction buffer (50 mM Tris pH 8, 150 mM NaCl, 5 mM EDTA, 0.5% NP40, 1 mM DTT); precipitated with magnetic α-GFP beads (μMACS), uncoupled beads as control; immunoblot
[2] = molecular target: proliferating cell nuclear antigen (PCNA), endogenous in HeLa cells (human (endogenous in HeLa)) (UniProt P12004); assay: proximity ligation; in situ PLA (Duolink, mouse/rabbit probes) of endogenous proteins in HeLa cells; signals at distances of less than 40 nm; PLA signals per nucleus counted in >150 cells
[3] = molecular target: T2, polymerase η (Pol η) precipitated with Pol η-specific antibodies from 293T lysates (human (endogenous in 293T)) (UniProt Q9Y253); assay: co-IP; 293T cells transfected with POLDIP2 wildtype-, T216E- or AuroraB-GFP; lysates immunoprecipitated with Pol η-specific antibodies and immunoblotted for GFP
T2 sequence: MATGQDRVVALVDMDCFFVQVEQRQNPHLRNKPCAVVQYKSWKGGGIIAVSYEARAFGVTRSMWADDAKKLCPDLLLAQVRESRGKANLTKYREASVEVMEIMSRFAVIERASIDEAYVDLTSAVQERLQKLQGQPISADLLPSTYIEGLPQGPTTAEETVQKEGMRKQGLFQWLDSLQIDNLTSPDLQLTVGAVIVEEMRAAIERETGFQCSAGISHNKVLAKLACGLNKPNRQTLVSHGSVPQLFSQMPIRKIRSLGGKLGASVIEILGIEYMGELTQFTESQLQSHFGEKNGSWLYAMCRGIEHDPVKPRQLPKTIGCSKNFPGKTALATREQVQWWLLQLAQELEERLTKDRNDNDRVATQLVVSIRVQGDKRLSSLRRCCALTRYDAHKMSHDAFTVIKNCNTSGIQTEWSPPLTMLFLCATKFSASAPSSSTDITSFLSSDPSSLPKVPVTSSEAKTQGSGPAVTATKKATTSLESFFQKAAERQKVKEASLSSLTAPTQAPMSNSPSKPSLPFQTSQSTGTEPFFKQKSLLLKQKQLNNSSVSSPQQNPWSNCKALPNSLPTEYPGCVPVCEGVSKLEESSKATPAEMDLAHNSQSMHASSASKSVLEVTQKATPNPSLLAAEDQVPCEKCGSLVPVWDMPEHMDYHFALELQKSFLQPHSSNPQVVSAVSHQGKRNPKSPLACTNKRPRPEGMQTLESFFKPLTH

For “myc-tagged Survivin (from UniProt O15392 1-142)”, the binding [1] was “binds”.

“myc-INCENP wildtype (from UniProt Q9NQS7 1-918)” was tested, and the binding (GFP-PCNA) was “binds”.

With “Survivin, endogenous in 293T cells (from UniProt O15392 1-142)” the binding [1] was “binds”.

With “Aurora B kinase, endogenous in 293T cells (from UniProt Q96GD4 1-344) (enzyme)” the binding [1] was “binds”.

In the case of “Aurora B kinase, endogenous in HeLa cells (from UniProt Q96GD4 1-344) (enzyme)”, the binding [2] is reported as “binds”.

In the case of “Survivin, endogenous in HeLa cells (from UniProt O15392 1-142)”, the binding [2] is reported as “binds”.

With “myc-tagged Aurora B (from UniProt Q96GD4 1-344) (enzyme)” the binding [1] was “binds”.

“AuroraB-GFP (from UniProt Q96GD4 1-344) (enzyme)” was tested, and the binding [3] was “binds”.

With “INCENP, endogenous in HeLa cells (from UniProt Q9NQS7 1-918)” the binding [2] was “binds”.

B1: POLDIP2 wildtype-GFP (protein, UniProt Q9Y2S7 52-368)
chain: SSRNRPEGKVLETVGVFEVPKQNGKYETGQLFLHSIFGYRGVVLFPWQARLYDRDVASAAPEKAENPAGHGSKEVKGKTHTYYQVLIDARDCPHISQRSQTEAVTFLANHDDSRALYAIPGLDYVSHEDILPYTSTDQVPIQHELFERFLLYDQTKAPPFVARETLRAWQEKNHPWLELSDVHRETTENIRVTVIPFYMGMREAQNSHVYWWRYCIRLENLDSDVVQLRERHWRIFSLSGTLETVRGRGVVGREPVLSKEQPAFQYSSHVSLQASSGHMWGTFRFERPDGSHFDVRIPPFSLESNKDEKTPPSGLHW
In the case of B1, the binding [3] is reported as “binds”.

B2: Borealin, endogenous in HeLa cells (protein, UniProt Q53HL2 1-280)
chain: MAPRKGSSRVAKTNSLRRRKLASFLKDFDREVEIRIKQIESDRQNLLKEVDNLYNIEILRLPKALREMNWLDYFALGGNKQALEEAATADLDITEINKLTAEAIQTPLKSAKTRKVIQVDEMIVEEEEEEENERKNLQTARVKRCPPSKKRTQSIQGKGKGKRSSRANTVTPAVGRLEVSMVKPTPGLTPRFDSRVFKTPGLRTPAAGERIYNISGNGSPLADSKEIFLTVPVGGGESLRLLASDLQRHSIAQLDPEALGNIKKLSNRLAQICSSIRTHK
For B2, the binding [2] was “binds”.

Source: PMC11544903
